The text below walks through data of PMC7819943, “Rice protein-binding microarrays: a tool to detect cis-acting elements near promoter regions in rice”.

The chains behind the UniProt entries cited, without tags or fusion partners.
UniProt Q0JBA9, entry or part of it: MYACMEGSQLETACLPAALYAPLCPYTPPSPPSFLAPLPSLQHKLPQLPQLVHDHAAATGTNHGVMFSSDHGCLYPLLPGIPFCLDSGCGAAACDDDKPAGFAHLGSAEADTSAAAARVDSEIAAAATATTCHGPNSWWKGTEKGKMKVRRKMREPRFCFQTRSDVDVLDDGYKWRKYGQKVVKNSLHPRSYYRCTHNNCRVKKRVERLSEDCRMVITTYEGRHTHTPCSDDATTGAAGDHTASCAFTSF

Some of the results follow.

In the assay the target is OsWRKY34 (Oryza sativa, UniProt Q0JBA9 1-250). The assay is described as follows: protein-binding microarray (RPBM); PBS, 2% BSA, 51.3 ng/ul salmon testes DNA, 50 uM zinc acetate, 200 nM TF, 25 C, 1 h; high values mean tight binding. The settings on record: protein: recombinant; tags: N-terminal polyhistidine and DsRed monomer fusion (pET32a); label: CyDye5-dUTP incorporated in the synthesized complementary strand; 3' TTTTT single-stranded linker to array surface; dsDNA, one strand shown. Put shortly:
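An Axon 4000B scanner gave the binding signal as per-feature fluorescence intensity in arbitrary units. This followed washing of a custom Agilent array that had been incubated for 1 h at 25 °C with 200 nM protein in PBS, 2% BSA, salmon testes DNA and 50 µM zinc acetate. The proteins were transcription factors fused at the N-terminus to polyhistidine and DsRed, expressed in E. coli BL21-CodonPlus and purified on Ni–NTA.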
Take “GCCACATTGCCAGTATTGGAGGACACTTTGCTACCGATCGCGGAGTCACCTAGTGCAG”: the binding signal was 8260 fluorescence intensity (a.u.).
On to “GCGACCTCTGCGGCCCGATCTCGCCACCAACTCCGAGCGACGGAGTCACCTAGTGCAG”, for which the binding signal is 8820 fluorescence intensity (a.u.).
Turning to “TTGTGCCTCATCCTTCTCTTCCAATTCCATTCTTACTGCACGGAGTCACCTAGTGCAG”, the binding signal is 8370 fluorescence intensity (a.u.).
With “AACGATATTTGACCCGATGTTGCCCGGGACTTCTCGCATACGGAGTCACCTAGTGCAG”, the binding signal was 9270 fluorescence intensity (a.u.).
With “TACACTTCATACCAACTTGTTGCTTCAATTATCCAGCTTTCGGAGTCACCTAGTGCAG”, the binding signal is 11000 fluorescence intensity (a.u.).
Consider “ACCTAACCACCATTCCTTGACACCTGCCCGGACCAGTTCTCGGAGTCACCTAGTGCAG”, for which the binding signal is 8410 fluorescence intensity (a.u.).
“GCCCGCACTACCGCGACATCTCCTCGTCGGCGCACAGACCCGGAGTCACCTAGTGCAG”: the binding signal is 10300 fluorescence intensity (a.u.).
With “ATTCACGAATTATTTTTCGTTTGCCAATATGCCGTTTCGCCGGAGTCACCTAGTGCAG”, the binding signal is 8320 fluorescence intensity (a.u.).
Regarding “CGCCGCCGCCCCTCGCCTGCCCGACCACCGTCGCCCCTCGCGGAGTCACCTAGTGCAG”, the binding signal was 8810 fluorescence intensity (a.u.).
Turning to “ACATATTTCGTCTGTTTGAACTAATTTTTTCTATGGTTTGCGGAGTCACCTAGTGCAG”, the binding signal was 12000 fluorescence intensity (a.u.).
On to “ATTATCCATTTAATTTCTTCATCTCCTCAACCAATCACAACGGAGTCACCTAGTGCAG”, for which the binding signal was 8290 fluorescence intensity (a.u.).
Take “ATTTACACGTAATCTGTGTAATTGGTTTTTTTCTCTATATCGGAGTCACCTAGTGCAG”: the binding signal is 8960 fluorescence intensity (a.u.).
“TGCAAGGCTCCTGTCGGGGTCGGGGATCTGTAGGGGCCAGCGGAGTCACCTAGTGCAG”: the binding signal is 10200 fluorescence intensity (a.u.).
Consider “AGCAGAGATTTTTACCACGTGTCTCAACAAATAGCCACATCGGAGTCACCTAGTGCAG”, for which the binding signal was 8050 fluorescence intensity (a.u.).
The figure for “TACAATAACTTCTCCACCAACATTCTCTTCTCAACCAATACGGAGTCACCTAGTGCAG” is 8900 fluorescence intensity (a.u.); for “TTAAGATTCGTGCAATAATTGGGTTGTGGGATGGACTTCTCGGAGTCACCTAGTGCAG” it is 10300 fluorescence intensity (a.u.).
“TTCATACGTTATAGCGACATGTTTCAGCGTCTGTTTTTATCGGAGTCACCTAGTGCAG”: the binding signal was 9290 fluorescence intensity (a.u.).
For “ACGCTGAGTGTACGAACGTGTTGTGGGAGGAGGGGATGGACGGAGTCACCTAGTGCAG” the value was 8750 fluorescence intensity (a.u.); for “TTAGTGCATTAGTTGTAATATTGAGATTCACTTACTTTTACGGAGTCACCTAGTGCAG”, 8460 fluorescence intensity (a.u.).
Take “ATGTGCTTCATTCTATCTGGTCAACAATGTATTACACACTCGGAGTCACCTAGTGCAG”: the binding signal was 11800 fluorescence intensity (a.u.).
“AATCTTGTCGTTTGTGTTTTTTTTCATCCTATCAAGTTGTCGGAGTCACCTAGTGCAG”: the binding signal was 14100 fluorescence intensity (a.u.).
On to “CACCTTACGCTTCTGCCCTATCGATCACTTGTCGCCTCAGCGGAGTCACCTAGTGCAG”, for which the binding signal was 9990 fluorescence intensity (a.u.).
The figure for “TTTCTACTAGTACTCTATTTTTTTCTCTTCTATCACCATTCGGAGTCACCTAGTGCAG” is 9730 fluorescence intensity (a.u.).
Turning to “CGCGTTCTTCACCGGCATTTCCTCGAACGCCATCCGTGAACGGAGTCACCTAGTGCAG”, the binding signal is 9370 fluorescence intensity (a.u.).
Consider “GATTGCTTATCGATATCTCATCCGTCCGATAGTCATATATCGGAGTCACCTAGTGCAG”, for which the binding signal is 16300 fluorescence intensity (a.u.).
For the sequence “GGCACTAACCAACAAACGCACACTCCACAGCCATCATCGCCGGAGTCACCTAGTGCAG”, the binding signal was 9430 fluorescence intensity (a.u.).
Take “TTATAGGGTTTGTTTATTATGTTGCCACTTTTAACTACACCGGAGTCACCTAGTGCAG”: the binding signal is 9980 fluorescence intensity (a.u.).
Consider “TTTCTGCATCTTAATATTTGTAACAAATCTAACGAATACTCGGAGTCACCTAGTGCAG”, for which the binding signal was 8170 fluorescence intensity (a.u.).
For the sequence “GGATAGAGTAGTTTGTTTGGATCTGATGGTTACACATTGACGGAGTCACCTAGTGCAG”, the binding signal was 8170 fluorescence intensity (a.u.).
With “GTCCGCATCTCATCCTTCCGCAAGTCCGTATCTCATCCCTCGGAGTCACCTAGTGCAG”, the binding signal was 10400 fluorescence intensity (a.u.).
For the sequence “TTTTGTTTTGTAGTATCTTCTCTGGCTCGATGTCATCATTCGGAGTCACCTAGTGCAG”, the binding signal is 8900 fluorescence intensity (a.u.).
Regarding “AGCACATTGTTTCAGATCATTCTCGAGATTTCAGCCTTCTCGGAGTCACCTAGTGCAG”, the binding signal is 9640 fluorescence intensity (a.u.).
For “CATCGATCGCACTAGTGTCGCTCTCTGGAAGTAATAGCCTCGGAGTCACCTAGTGCAG” the value was 8110 fluorescence intensity (a.u.); for “CGTCTCCGCCGCTGCTTGAATCTGCCGCCACCATCACCGCCGGAGTCACCTAGTGCAG”, 8910 fluorescence intensity (a.u.); for “CAACTATGACAGGTCACTACTACCAGTAGCATGATGTTAGCGGAGTCACCTAGTGCAG”, 8170 fluorescence intensity (a.u.).
“CATGGGAGGCGGGGCCCATTGTTTCTTGTGTTCATGGCCTCGGAGTCACCTAGTGCAG”: the binding signal is 10300 fluorescence intensity (a.u.).
For “CTCCCATTGACCCATTTATTTGTTGAAACCACGTTTTCGTCGGAGTCACCTAGTGCAG” the value was 10100 fluorescence intensity (a.u.); for “GCACTATTCTTTAGCACCGTACAAGTTCGCGAGCCCAGAACGGAGTCACCTAGTGCAG”, 9390 fluorescence intensity (a.u.).
Take “CCTAGTCTCTTCCTGCTGCTACTGCTGCTGCTCTCGTATTCGGAGTCACCTAGTGCAG”: the binding signal is 8320 fluorescence intensity (a.u.).
Consider “CTCTCTCTCTCTCTCGTTCGTTCCCCGGTCAGTCAACCGTCGGAGTCACCTAGTGCAG”, for which the binding signal was 10200 fluorescence intensity (a.u.).
For “TTGCCACCACCAAATCAGCTGAGATCTCACTTTTGATTCGCGGAGTCACCTAGTGCAG” the value was 8030 fluorescence intensity (a.u.).
The figure for “GCGGCTTCTTCTCGGGGTGGATTTGGTGGTGGTTTTTTTTCGGAGTCACCTAGTGCAG” is 21500 fluorescence intensity (a.u.).
